Measurements published in PubChem BioAssay (Tox21).
The inconclusive results got no clear call from the source; some entries with a clear call stand among them for comparison. For some of these results: Where the call is inconclusive, the potency comes from a doubtful curve fit. The source made the active and inactive calls. Unless noted, calls follow the shape of the full dose curve.

Sequences of proteins named here, by UniProt entry; tags and fusion partners are left off. A change or cut given only in a name is not applied to a line headed by its entry.
UniProt P28223, whole entry, looked up: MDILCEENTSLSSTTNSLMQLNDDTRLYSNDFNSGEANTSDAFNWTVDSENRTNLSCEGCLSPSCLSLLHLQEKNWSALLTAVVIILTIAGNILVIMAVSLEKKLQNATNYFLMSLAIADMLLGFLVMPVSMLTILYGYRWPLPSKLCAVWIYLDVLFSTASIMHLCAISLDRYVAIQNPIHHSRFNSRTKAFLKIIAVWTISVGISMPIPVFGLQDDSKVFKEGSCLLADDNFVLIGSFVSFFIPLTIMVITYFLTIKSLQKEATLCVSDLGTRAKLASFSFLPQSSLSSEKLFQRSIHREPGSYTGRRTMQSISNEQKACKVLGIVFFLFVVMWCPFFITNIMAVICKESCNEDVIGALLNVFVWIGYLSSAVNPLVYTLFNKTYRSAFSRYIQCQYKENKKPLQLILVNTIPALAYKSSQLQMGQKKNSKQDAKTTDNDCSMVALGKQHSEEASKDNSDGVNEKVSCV
UniProt P11229: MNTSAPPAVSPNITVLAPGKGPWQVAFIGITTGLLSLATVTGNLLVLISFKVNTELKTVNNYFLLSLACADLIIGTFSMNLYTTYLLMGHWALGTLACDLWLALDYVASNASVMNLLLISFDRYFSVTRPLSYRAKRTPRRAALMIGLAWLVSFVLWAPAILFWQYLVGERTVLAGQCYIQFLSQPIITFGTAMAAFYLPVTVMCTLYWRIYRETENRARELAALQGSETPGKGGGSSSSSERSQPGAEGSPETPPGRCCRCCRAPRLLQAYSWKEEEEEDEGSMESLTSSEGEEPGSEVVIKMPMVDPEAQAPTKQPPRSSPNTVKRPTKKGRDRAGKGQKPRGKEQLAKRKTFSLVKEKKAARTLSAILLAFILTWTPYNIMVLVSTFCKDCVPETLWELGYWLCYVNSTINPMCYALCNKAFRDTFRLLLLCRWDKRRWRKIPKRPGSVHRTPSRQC
UniProt P14416, whole entry, looked up: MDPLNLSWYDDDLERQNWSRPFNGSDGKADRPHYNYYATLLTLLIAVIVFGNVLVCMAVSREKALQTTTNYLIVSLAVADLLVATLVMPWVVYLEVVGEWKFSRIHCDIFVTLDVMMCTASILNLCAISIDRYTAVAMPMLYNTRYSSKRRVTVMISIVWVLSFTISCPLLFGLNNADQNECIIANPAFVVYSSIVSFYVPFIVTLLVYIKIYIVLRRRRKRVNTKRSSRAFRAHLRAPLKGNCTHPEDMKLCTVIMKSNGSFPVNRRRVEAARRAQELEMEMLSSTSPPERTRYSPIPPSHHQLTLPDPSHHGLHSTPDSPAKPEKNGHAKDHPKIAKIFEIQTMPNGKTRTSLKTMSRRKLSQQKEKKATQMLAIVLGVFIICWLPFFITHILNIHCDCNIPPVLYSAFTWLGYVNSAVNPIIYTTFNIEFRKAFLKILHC

Key:
[1] = Nuclear factor erythroid 2-related factor 2/antioxidant responsive element (Nrf2/ARE) small molecule agonists: luciferase reporter gene qHTS assay in human keratinocytes (AID 1919969); conditions: KeratinoSens HaCaT ARE-luciferase, luminescence, 24 h; activity, positive = activation: at 92.4 µM (top of the series); also: nearly all actives have a fitted effect of over 35% in size; also: potency is read from the fitted curve at half-maximal effect; as to activity, positive = activation: % is scaled to controls: 0 for no effect and ±100 for the full control effect
[2] = p53 small molecule agonists, cell-based qHTS assay with rat liver microsomes (AID 1963578); conditions: HCT-116 p53RE-bla, beta-lactamase ratio, 16 h; activation: at 66 µM (top of the series) unless noted; also: potency is read from the fitted curve at half-maximal effect
How it was run: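 Rat liver microsome activation: microsomes 0.5 mg/mL, NADPH 0.5 mg/mL final; p53RE-bla cells, 16 h 37 C; LiveBLAzer readout, 2 h RT dark.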

[3] = p53 small molecule agonists, cell-based qHTS assay: qHTS cell viability counter screen (AID 1963581); also: potency is read from the fitted curve at half-maximal effect; nearly all actives have a fitted effect of over 45% in size
How it was run: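 Counter screen read by CellTiter-Glo luminescence (ATP content, 30 min at room temperature), run in the same wells as the beta-lactamase reporter read. HCT-116 p53RE-bla cells saw compounds for 16 h at 37 C.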

[4] = p53 small molecule agonists, cell-based qHTS assay (AID 1963582; active = well fitted activation curve with a large enough effect in the signal ratio in the repeat runs, not every such curve was filed as active; inconclusive = weak or mixed curves; the % refers to the signal ratio; also: potency is read from the fitted curve at half-maximal effect; as to activation: % is scaled to controls: 0 for no effect and ±100 for the full control effect); conditions: HCT-116 p53RE-bla reporter, beta-lactamase FRET ratio, 16 h; activation: at 66 µM (top of the series) unless noted
How it was run: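 Read-out is beta-lactamase FRET fluorescence after 2 h at room temperature with LiveBLAzer B/G substrate. p53 response element-bla cells were treated 16 h at 37 C with compounds in DMSO, added 5 h after seeding.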

[5] = cAMP Responsive Elements (CRE) small molecule antagonists, cell-based qHTS assay (AID 1963591; active = well fitted inhibition curve with a large enough effect in the signal ratio in the repeat runs, not every such curve was filed as active; inconclusive = weak or mixed curves, or effect the other way; the % refers to the signal ratio; also: potency is read from the fitted curve at half-maximal effect); conditions: CRE-bla HEK293T, beta-lactamase FRET ratio; activity change, negative = inhibition: at 92.4 µM (top of the series) unless noted
How it was run: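 Antagonist mode: compounds are added alongside the adenylyl cyclase activator NKH477 (0.25 uM final) to CRE-bla HEK293T cells for 3 h. LiveBLAzer FRET substrate, 2 h at room temperature, reports bla expression.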

[6] = target: Beta-2 adrenergic receptor (Homo sapiens) (UniProt P07550); assay: Adrenergic beta2 receptor (ADRB2) small molecule agonists, cell-based qHTS assay (AID 1963593); conditions: CHO-ADRB2 cells, cAMP HTRF, 30 min; activation: at 92.4 µM (top of the series) unless noted; also: potency is read from the fitted curve at half-maximal effect;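 as to activation: CHO cells stably overexpressing human ADRB2; % is scaled to controls: 0 for no effect and ±100 for the full control effect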
How it was run: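 CHO cells stably over-expressing ADRB2 were plated overnight at 37C, then dosed with compounds plus a stimulation mix containing 100uM IBMX and 25uM Ro-20-1724 for 0.5hr at room temperature. cAMP was measured by HTRF competition, 1hr.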

[7] = p53 small molecule agonists, cell-based qHTS assay with human liver microsomes (AID 1963577); conditions: HCT-116 p53RE-bla with human liver microsomes, ratio, 16 h; activation: at 66 µM (top of the series) unless noted; also: potency is read from the fitted curve at half-maximal effect
How it was run: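 p53RE-bla cells; 5 h settle, 37 C/5% CO2; cpd + HLM 0.5 mg/mL + NADPH 0.5 mg/mL (final); 16 h 37 C; LiveBLAzer 2 h RT dark; fluorescence readout.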

[8] = target: 5-hydroxytryptamine receptor 2A (Homo sapiens) (UniProt P28223); assay: 5-hydroxytryptamine receptor 2A (HTR2A) small molecule antagonists, cell-based qHTS assay (AID 1963586); also: potency is read from the fitted curve at half-maximal effect; nearly all actives have a fitted effect of over 45% in size
How it was run: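 CHO cells stably expressing human HTR2A were plated for 18 h at 37 C, then loaded with calcium dye for 1 h. Compounds were preincubated 5 min at room temperature before DOI (4 nM solution) was added. Kinetic fluorescence was read for 3 min.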

[9] = cAMP Responsive Elements (CRE) small molecule agonists, cell-based qHTS assay (AID 1963590); conditions: CRE-bla HEK293T, beta-lactamase FRET ratio, 3 h; activation: at 92.4 µM (top of the series) unless noted; also: potency is read from the fitted curve at half-maximal effect
How it was run: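 Agonist mode: compound added to CRE-bla HEK 293T cells (2,000/well, 18 h after plating) for 3 h at 37 C/5% CO2. Reporter activity detected via FRET beta-lactamase substrate, 2 h room-temperature loading.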

[10] = target: Muscarinic acetylcholine receptor M1 (Homo sapiens) (UniProt P11229); assay: Cholinergic receptor muscarinic 1 (CHRM1) small molecule antagonists, cell-based qHTS assay (AID 1963588); also: potency is read from the fitted curve at half-maximal effect; nearly all actives have a fitted effect of over 40% in size
How it was run: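 Compounds were tested at 15 concentrations in three independent runs. Dye-loaded CHRM1-CHO cells were exposed 5 min at room temperature before stimulation by acetylcholine added at 50nM. Intracellular calcium was read kinetically on FDSS for 3 min.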

[11] = target: Beta-2 adrenergic receptor (Homo sapiens) (UniProt P07550); assay: Adrenergic beta2 receptor (ADRB2) small molecule antagonists, cell-based qHTS assay (AID 1963592); conditions: CHO-ADRB2 cells, isoproterenol-stimulated cAMP HTRF ratio, 0.5 h; activity change, negative = inhibition: at 92.4 µM (top of the series) unless noted; also: potency is read from the fitted curve at half-maximal effect; nearly all actives have a fitted effect of over 50% in size
How it was run: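 Assay format: CHO-ADRB2 cells, 18-20hr seeding at 37C/5% CO2, then compound plus 1nM isoproterenol agonist mix for 0.5hr RT. Homogeneous time-resolved fluorescence cAMP detection after 1hr, expressed as 665/615 nm ratio.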

[12] = target: D(2) dopamine receptor (Homo sapiens) (UniProt P14416); assay: Dopamine D2 receptor (DRD2) small molecule agonists, cell-based qHTS assay (AID 1963594); conditions: HEK293-DRD2 cAMP HTRF, agonist mode, 30 min; activation: at 92.4 µM (top of the series) unless noted; also: nearly all actives have a fitted effect of over 35% in size; also: potency is read from the fitted curve at half-maximal effect
How it was run: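 cAMP accumulation in DRD2-HEK293 cells measured by HTRF after 1 h detection; compounds added 10 min before NKH477 (200nM […]) forskolin-analogue stimulation, 30 min at room temperature, with Ro20-1724 present at 0.1 mM final.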

[13] = target: D(2) dopamine receptor (Homo sapiens) (UniProt P14416); assay: Dopamine D2 receptor (DRD2) small molecule antagonists, cell-based qHTS assay (AID 1963595; active = well fitted inhibition curve with a large enough effect in the signal ratio in the repeat runs, with a control signal flat; inconclusive = weak or mixed curves, or effect the other way; the % refers to the signal ratio; also: % is scaled to controls: 0 for no effect and ±100 for the full control effect); conditions: HEK293-DRD2 cAMP HTRF antagonist mode; activity change, negative = inhibition: at 92.4 µM (top of the series) unless noted
How it was run: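 HTRF cAMP read-out at 665 and 620 nm emission (340 nm excitation). Antagonist mode: compounds were tested against 12 nM quinpirole in DRD2-HEK293 cells, with 200 nM NKH477 raising cAMP and 0.1 mM Ro20-1724 blocking its breakdown.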

Which Potency [1] does the source give for Nc1nc(N)c2nc(CNc3ccc(C(=O)N[C@@H](CCC(=O)O)C(=O)O)cc3)cnc2n1 here?
The Potency was “inactive”.

And the Potency [2]?
The Potency was inconclusive: 19.1 µM [activator].

What about the Potency [3] of the same compound?
The Potency was inconclusive: 47.9 µM [cytotoxic, single point].

And the activation [4]?
Its activation is inconclusive: 28.8%.

And the Potency [5]?
Its Potency is inconclusive: 18 µM [fluorescent, full curve, poor fit].

What about the Potency [6] of the same compound?
The Potency was “inactive”.

Which results are given for C=CC(=O)OCCCC?
Potency [1]: inactive; activation [7]: inconclusive: 19.3%; Potency [8]: inconclusive: 10.5 µM [inhibitor, single point]; Potency [9]: inactive; Potency [6]: inconclusive: 6.07 µM [inhibitor, partial curve, poor fit]; activation [6]: inconclusive: 1.41%

What does the source list for CCOC(=O)c1ccc(C2CCC(NC[C@H](O)COc3ccc(O)c(NS(C)(=O)=O)c3)CC2)cc1 (some centres undefined)?
Potency [1]: inconclusive: 0.0893 µM [activator, single point]; Potency [2]: inactive; Potency [4]: inconclusive: 13.3 µM [rising, partial curve]; Potency [10]: active: 8.69 µM; Potency [9]: inconclusive: 56.4 µM [fluorescent, partial curve]; Potency [5]: inconclusive: 56.4 µM [fluorescent]; Potency [11]: active: 7.96 µM; Potency [6]: inconclusive: 25.2 µM [inhibitor]; Potency [12]: active: 79.6 nM

For Cc1coc2ccccc2c1=O, which Potency [1] is on record?
Its Potency is “inactive”.

And the Potency [7]?
Its Potency is inconclusive: 17.8 µM [fluorescent, partial curve].

What about the Potency [9] of the same compound?
Its Potency is “inactive”.

And the Potency [6]?
Its Potency is “inactive”.

Which results are given for CCCCC(O)/C=C(C)/C=C/C=C/C(=O)N1CCCC1=O (centres undefined)?
Potency [1]: inactive; Potency [7]: inactive; Potency [12]: inactive

Which results are given for CCOC(=O)/C=C(C)/C=C/C=C(C)/C=C/c1c(C)cc(OC)c(C)c1C?
Potency [1]: inconclusive: 33.5 µM [activator, single point]; Potency [2]: inconclusive: 19.9 µM [rising, partial curve, poor fit]; Potency [4]: inconclusive: 17.8 µM [rising, single point]; Potency [9]: inconclusive: 23.7 µM [rising, partial curve]; Potency [6]: inactive; Potency [13]: inactive
